Reference: patent publication US20180346580A1 (INTERVET, published 2018)
No constants are given. Whether binding was seen depends on the method and setting. Some binding calls cover weakened binding; strength is not graded here. Where a sequence is shown, tags or fusion partners need not be part of it.

Biological target: T1, HIS-tagged extracellular domain of canine IL-4 receptor alpha chain (canine)
T1 sequence: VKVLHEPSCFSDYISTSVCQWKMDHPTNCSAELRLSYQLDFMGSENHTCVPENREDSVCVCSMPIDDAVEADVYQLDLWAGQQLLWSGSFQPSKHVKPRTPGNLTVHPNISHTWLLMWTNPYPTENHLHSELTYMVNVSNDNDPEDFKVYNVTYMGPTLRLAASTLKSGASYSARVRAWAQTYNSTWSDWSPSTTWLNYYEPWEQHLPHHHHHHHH
Assay: ELISA on plate-coated HIS-tagged canine IL-4Rα ECD, detection with HRP goat anti-mouse IgG

B1: 1A9 (antibody, V domains shown)
VH: QVPLQQSGPELVKPGASVKISCKASGYAFSSSWMNWVKQRPGKGLEWIGRIYPGDGDTKYNGKFKGKATLTADKSSSTAYMQLSSLTSEDSAVYFCARDDYDEASWGQGTLVTVSA
VL: DIVMTQSQKFMSTSVGDRVSITCKASQNVRSAVAWYQQKPGQSPKSLIYLASNRHTGVPDRFTGSGSGTDFTLTISNVQSEDLADYFCLQHWNYPFTFGSGTKLEIK
notes: member of the group m16; also called mAb 1A9; mouse anti-canine IL-4Rα monoclonal antibody 1A9
  binding: binds
